PubChem BioAssay AID1259405 – NCATS, 2018
Here is a random part of about 50,000 deposited reagents. About 4,000 of all reagents (8%) were called active. 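Mouse siRNA library applied to hamster cells; one well for each siRNA.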 The numbers tell different reagents against one gene apart.

Aim: 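Silenced genes that increase secreted GFP made by CHO cells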 (primary screen)
Cells: Chinese hamster CHO-K1 ovary cells with stable secreted eGFP expression
Knock-down reagent: single siRNA against mouse genes, 0.8 pmol siRNA per well (2 µl of 400 nM stock)
Timing: 3 days
Read-out: 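Percent of the per-plate non-targeting control median for intracellular GFP per well by laser scanning cytometry and for cell viability by ATP luminescence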
Scale: GFP, % of control: higher = more GFP per well, higher productivity; viability (ATP), % of control: higher = more viable cells (more ATP)
Hit rule: 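a knock-down is called active if GFP reaches 120% or more of non-targeting control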

After knock-down of Adcyap1 (adenylate cyclase activating polypeptide 1) #1, the screen gave GFP, % of control 135; viability (ATP), % of control 42.2; active.
Depletion of Adcyap1 (adenylate cyclase activating polypeptide 1) #2 came out at: GFP, % of control 70; viability (ATP), % of control 76; inactive.
With knock-down of Cfap263 (cilia and flagella associated protein 263) #1 the results were GFP, % of control 63.1; viability (ATP), % of control 43; inactive.
Against Cfap263 (cilia and flagella associated protein 263) #2, the entry reads GFP, % of control 71.9; viability (ATP), % of control 80.3; inactive.
Cfap263 (cilia and flagella associated protein 263) #3 showed GFP, % of control 123; viability (ATP), % of control 124; active.
After knock-down of Haus2 (HAUS augmin-like complex, subunit 2) #1, the screen gave GFP, % of control 78.3; viability (ATP), % of control 84.6; inactive.
Haus2 (HAUS augmin-like complex, subunit 2) #2 showed GFP, % of control 60.1; viability (ATP), % of control 82.2; inactive.
Depletion of Haus2 (HAUS augmin-like complex, subunit 2) #3 gave: GFP, % of control 90.2; viability (ATP), % of control 72.8; inactive.
Knock-down of Tnfrsf13b (tumor necrosis factor receptor superfamily, member 13b) #1 resulted in: GFP, % of control 65.1; viability (ATP), % of control 102; inactive.
Tnfrsf13b (tumor necrosis factor receptor superfamily, member 13b) #2 gave GFP, % of control 108; viability (ATP), % of control 81.7; inactive.
Depletion of Tnfrsf13b (tumor necrosis factor receptor superfamily, member 13b) #3 came out at: GFP, % of control 80.2; viability (ATP), % of control 87.8; inactive.

2 entries from above, reformatted.
Haus2 (HAUS augmin-like complex, subunit 2) #2
- GFP, % of control: 60.1
- viability (ATP), % of control: 82.2
- activity call: inactive

Haus2 (HAUS augmin-like complex, subunit 2) #3
- GFP, % of control: 90.2
- viability (ATP), % of control: 72.8
- activity call: inactive

Continued.
B3gnt7 #1 scored GFP, % of control 140; viability (ATP), % of control 105; active.
B3gnt7 #2 showed GFP, % of control 86.8; viability (ATP), % of control 141; inactive.
For B3gnt7 #3, the values are GFP, % of control 99.6; viability (ATP), % of control 102; inactive.
For Mtfr1 (mitochondrial fission regulator 1) #1, the entry reads GFP, % of control 57.7; viability (ATP), % of control 87.3; inactive.
With knock-down of Mtfr1 (mitochondrial fission regulator 1) #2, the screen gave GFP, % of control 50.5; viability (ATP), % of control 58.4; inactive.
With knock-down of Mtfr1 (mitochondrial fission regulator 1) #3, the screen gave GFP, % of control 82.2; viability (ATP), % of control 84.7; inactive.
